# Experimental data published in publication PMC7819943, “Rice protein-binding microarrays: a tool to detect cis-acting elements near promoter regions in rice”.
# This is one part of the list.
# Target: T1, OsSMF1 (Oryza sativa, UniProt Q6ZLB0 1-436)
# T1 sequence: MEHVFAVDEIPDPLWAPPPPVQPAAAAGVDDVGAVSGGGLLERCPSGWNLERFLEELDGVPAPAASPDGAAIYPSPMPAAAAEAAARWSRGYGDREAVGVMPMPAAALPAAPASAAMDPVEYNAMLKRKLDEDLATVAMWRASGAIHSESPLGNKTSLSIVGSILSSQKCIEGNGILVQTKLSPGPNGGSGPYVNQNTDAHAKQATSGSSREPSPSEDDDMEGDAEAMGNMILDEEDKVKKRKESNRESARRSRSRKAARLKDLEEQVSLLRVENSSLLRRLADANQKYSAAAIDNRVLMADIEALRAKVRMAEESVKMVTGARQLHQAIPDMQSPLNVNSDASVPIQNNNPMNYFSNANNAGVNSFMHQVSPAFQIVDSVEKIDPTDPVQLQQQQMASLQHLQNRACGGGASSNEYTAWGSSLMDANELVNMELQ
# Experiment: protein-binding microarray (RPBM); PBS, 2% BSA, 51.3 ng/ul salmon testes DNA, 50 uM zinc acetate, 200 nM TF, 25 C, 1 h; high values mean tight binding
# Details: protein: recombinant; tags: N-terminal polyhistidine and DsRed monomer fusion (pET32a); chain copies: 2; label: CyDye5-dUTP incorporated in the synthesized complementary strand; 3' TTTTT single-stranded linker to array surface; dsDNA, one strand shown
# In short: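 Binding signal is defined as the fluorescence intensity of each feature in arbitrary units, read on an Axon 4000B scanner. Transcription factors with N-terminal polyhistidine and DsRed fusions came from E. coli BL21-CodonPlus and were purified on Ni–NTA. They were incubated at 200 nM for 1 h at 25 °C on a custom Agilent array that had been made double-stranded with Cy5-dUTP, with 50 µM zinc acetate present, and the array was washed.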
row,Sequence,binding signal
1,ATCCTGATACTGACAACCTTGACTACATTTACTTGGTCACCGGAGTCACCTAGTGCAG,3900 fluorescence intensity (a.u.)
2,GCCGCCGCCGCCTCCTCCTCTTGTTTCGCCACCGCCGCCGCGGAGTCACCTAGTGCAG,3200 fluorescence intensity (a.u.)
3,TTAAGACTAGTATATACACACATACATACTCCCTGCGTCACGGAGTCACCTAGTGCAG,3350 fluorescence intensity (a.u.)
4,TTTCCCAACTAAACAATGCGTTGGGGCAAGTATTATAATGCGGAGTCACCTAGTGCAG,35800 fluorescence intensity (a.u.)
5,TCGTATACCCCGGCCATACGTGTTACGTGTTGTGCGCACACGGAGTCACCTAGTGCAG,6120 fluorescence intensity (a.u.)
6,GAGGTCGATGCGGACGCCTCTATTTAATCGCCACCGCAGCCGGAGTCACCTAGTGCAG,3190 fluorescence intensity (a.u.)
7,TCTGCAAGCACCAACGAGAAGCCACAAATGTTCACATCACCGGAGTCACCTAGTGCAG,3610 fluorescence intensity (a.u.)
8,AAGATAATGATGTAGACACGCAATCTGCGCGGGCCCACCACGGAGTCACCTAGTGCAG,3600 fluorescence intensity (a.u.)
9,GTAATGAATTGATGGATGATGTGTCTGATTATTGGCACTGCGGAGTCACCTAGTGCAG,7800 fluorescence intensity (a.u.)
10,TCGATCATACTCTAAAATCCACATCATGGTTCACAAGAAGCGGAGTCACCTAGTGCAG,3400 fluorescence intensity (a.u.)
11,ACGTAAGAGGGACGTGGATCACTGACGTGTGGACCCAACCCGGAGTCACCTAGTGCAG,12400 fluorescence intensity (a.u.)
12,ACATACATGCTACCCAATTTTGATTATTACTGTGCAGTTGCGGAGTCACCTAGTGCAG,3590 fluorescence intensity (a.u.)
13,AGCAACTGGGTGGGGCGACGACGGGGATGGGTGGCAAACTCGGAGTCACCTAGTGCAG,3770 fluorescence intensity (a.u.)
14,TTGTATCTGTGTGAGCGCCACCTGAGCATGCATGATTGCTCGGAGTCACCTAGTGCAG,3590 fluorescence intensity (a.u.)
15,TATGTTGAGTTTGAATTTGTATATTTATGAAATGGCATATCGGAGTCACCTAGTGCAG,33000 fluorescence intensity (a.u.)
16,TTCCAAGTAGGATAATATGCTGACATGGATATCTTATGGACGGAGTCACCTAGTGCAG,4620 fluorescence intensity (a.u.)
17,TATTTTGGAGCGGACGAAGTAATAATATAGTACACGTCGGCGGAGTCACCTAGTGCAG,5310 fluorescence intensity (a.u.)
18,CGAATATTCTTTTGCCACGTTAGCTAGCCACGCGCGCGCCCGGAGTCACCTAGTGCAG,13500 fluorescence intensity (a.u.)
19,TTTGCTCGTTGGCAGCGGCCAGCAGGCACGTGTAACGGCGCGGAGTCACCTAGTGCAG,4190 fluorescence intensity (a.u.)
20,AGGTGGTTGATGACAGGGGCAAACACGGTGGGCCGGAGTGCGGAGTCACCTAGTGCAG,5850 fluorescence intensity (a.u.)
21,AGTATCATTCGTCGGAAGAAGTGTATCTCATGAGTAGTCTCGGAGTCACCTAGTGCAG,3210 fluorescence intensity (a.u.)

row,Sequence,binding signal
1,CGCAAAACCACAAATTTAAGGACGTGTATCACAATACTACCGGAGTCACCTAGTGCAG,5350 fluorescence intensity (a.u.)
2,GTATTGGTAGGTGATACGCCAGAGGGGAGCGGGCGTCCGCCGGAGTCACCTAGTGCAG,4570 fluorescence intensity (a.u.)
3,ACACCACATTGTTAAATCATAGCGCAATTAGACTTAAAAGCGGAGTCACCTAGTGCAG,3460 fluorescence intensity (a.u.)
4,TACACTCGGCTTACCTCTCTTCGGCTCAAGCCATAACTGACGGAGTCACCTAGTGCAG,26600 fluorescence intensity (a.u.)
5,AGCCAGTTACTCTTATTTAATCTTAGATGGATACGTGGCACGGAGTCACCTAGTGCAG,8260 fluorescence intensity (a.u.)
6,AGAAGGGAGGTGAGGCTGACATATGGGGCCCACGTGAGCCCGGAGTCACCTAGTGCAG,3930 fluorescence intensity (a.u.)
7,CATCGTGGACTCCGGCACGACGCTGACATTCCTCGACCCACGGAGTCACCTAGTGCAG,3910 fluorescence intensity (a.u.)
8,TATGCACGCGCCACCCTCCGCGTTTCGCGAGGCCTCTCCTCGGAGTCACCTAGTGCAG,3290 fluorescence intensity (a.u.)
9,TATTCTAAATTTAGTGGTGGAGTCATACGTGTAGCTCACACGGAGTCACCTAGTGCAG,4390 fluorescence intensity (a.u.)
10,TGCAAGCTAATCGAGTTGATGTAAGTTCATTGCCAGATCACGGAGTCACCTAGTGCAG,3260 fluorescence intensity (a.u.)
11,TTTCAGATTCTCCCCACTCTCAACAGTGTTCACGGAAAACCGGAGTCACCTAGTGCAG,24900 fluorescence intensity (a.u.)
12,AGCTGCCACGCTGGCACGAGGTCAGCGTCAGGTCCAGTGGCGGAGTCACCTAGTGCAG,21600 fluorescence intensity (a.u.)
13,ATTAATCTGGCATCTATACTTATAAAGTCCACGAAAGCGTCGGAGTCACCTAGTGCAG,3500 fluorescence intensity (a.u.)
14,TGTCAGTGAGCTGGTTTACATTTCACCCTTGATTATGTATCGGAGTCACCTAGTGCAG,3300 fluorescence intensity (a.u.)
15,GTGGACTAATCTCCATGTCCATCCCATAAATCCCTCACACCGGAGTCACCTAGTGCAG,22100 fluorescence intensity (a.u.)
16,GCTCCCAATAATCCTACCAACATCGGCACAAATGCCGCCACGGAGTCACCTAGTGCAG,24000 fluorescence intensity (a.u.)
17,GCCACCATCATGACAACACATAATTCTCACAGCCTAAATCCGGAGTCACCTAGTGCAG,4410 fluorescence intensity (a.u.)
18,AAGTCTTTACGTCATACCAAGGCTTCGATATTGTTATCTCCGGAGTCACCTAGTGCAG,5380 fluorescence intensity (a.u.)
19,GCCCGTACAGCCAACTCCACACCGCGTTCTGCAGCCACGTCGGAGTCACCTAGTGCAG,7120 fluorescence intensity (a.u.)
20,GCGGCAGGTGGAGCGAGACTACGACGTGGACGGCACCGACCGGAGTCACCTAGTGCAG,3480 fluorescence intensity (a.u.)
21,AGCAGAGCTTTGCCCCGGGGCGTCGGCACGCACTGCCACCCGGAGTCACCTAGTGCAG,3690 fluorescence intensity (a.u.)

# Taken from the listing for reference:
row,Sequence,binding signal
15,TATGTTGAGTTTGAATTTGTATATTTATGAAATGGCATATCGGAGTCACCTAGTGCAG,33000 fluorescence intensity (a.u.)
16,TTCCAAGTAGGATAATATGCTGACATGGATATCTTATGGACGGAGTCACCTAGTGCAG,4620 fluorescence intensity (a.u.)
